# Paper PMC1800861, “Characterization of an Oct1 orthologue in the channel catfish, Ictalurus punctatus: A negative regulator of immunoglobulin gene transcription?”
# Construct, isoform or probe ends are uncertain for at least one entry. For some assays here: Negatives hold for the conditions tested. For some assays here: At least one verdict was read from the data and is not stated in words by the source. For some assays here: Where a protein sequence is shown, tags need not be part of it. For some assays here: Where cells or extracts were used, other partners may take part.
# Key:
# Oct1 (endogenous) [1] = biological target: T1, Oct1 (endogenous) (UniProt O57602); assay: competition with a labelled probe; conditions: scrambled competitor vs N3 probe, bands not abolished; 1x Promega binding buffer (from 5x, composition not given), 30 min preincubation at room temperature then 30 min with probe; 5% native PAGE at 4°C; 100x competitor; protein in an extract; label: none (cold competitor)
# T1 sequence (looked up, limits assumed): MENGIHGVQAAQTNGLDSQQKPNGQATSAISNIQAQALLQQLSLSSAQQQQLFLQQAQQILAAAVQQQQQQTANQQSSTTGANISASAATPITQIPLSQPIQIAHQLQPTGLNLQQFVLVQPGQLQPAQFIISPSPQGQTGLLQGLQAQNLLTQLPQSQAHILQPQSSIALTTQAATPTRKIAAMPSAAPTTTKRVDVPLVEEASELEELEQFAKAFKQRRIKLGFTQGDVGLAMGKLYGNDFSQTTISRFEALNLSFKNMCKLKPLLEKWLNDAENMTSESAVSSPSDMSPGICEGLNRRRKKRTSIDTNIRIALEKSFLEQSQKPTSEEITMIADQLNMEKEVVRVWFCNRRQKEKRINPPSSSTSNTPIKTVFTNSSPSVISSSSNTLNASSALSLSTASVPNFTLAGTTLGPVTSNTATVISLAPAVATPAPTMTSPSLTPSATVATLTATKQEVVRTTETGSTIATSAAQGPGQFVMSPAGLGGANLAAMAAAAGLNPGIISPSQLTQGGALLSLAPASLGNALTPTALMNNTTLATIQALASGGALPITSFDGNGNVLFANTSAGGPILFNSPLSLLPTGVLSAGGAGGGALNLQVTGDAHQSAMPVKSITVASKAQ
# Oct2 (endogenous) [2] = assay: competition with a labelled probe; conditions: scrambled competitor vs N3 probe, bands not abolished; 1x Promega binding buffer (from 5x, composition not given), 30 min preincubation at room temperature then 30 min with probe; 5% native PAGE at 4°C; 100x competitor; protein in an extract; label: none (cold competitor)
# Oct1 (endogenous) [3] = biological target: T1, Oct1 (endogenous); assay: EMSA supershift; conditions: anti-Oct1 supershift; 1x Promega binding buffer (from 5x, composition not given), 30 min preincubation at room temperature then 30 min with probe; 5% native PAGE at 4°C; 100x competitor; protein in an extract; label: 32P-dATP Klenow fill-in
# Oct2 (endogenous) [4] = assay: EMSA supershift; conditions: anti-Oct2 supershift; 1x Promega binding buffer (from 5x, composition not given), 30 min preincubation at room temperature then 30 min with probe; 5% native PAGE at 4°C; 100x competitor; protein in an extract; label: 32P-dATP Klenow fill-in
# [5] = biological target: T2, Oct2β (in vitro translated) (Ictalurus punctatus (channel catfish)) (UniProt O13007); assay: competition with a labelled probe; conditions: 100x unlabeled competitor vs N1 probe, results stated similar to Oct1; 1x Promega binding buffer (from 5x, composition not given), 30 min preincubation at room temperature then 30 min with probe; 5% native PAGE at 4°C; 100x competitor; protein translated in vitro; label: none (cold competitor)
# T2 sequence (looked up, limits assumed): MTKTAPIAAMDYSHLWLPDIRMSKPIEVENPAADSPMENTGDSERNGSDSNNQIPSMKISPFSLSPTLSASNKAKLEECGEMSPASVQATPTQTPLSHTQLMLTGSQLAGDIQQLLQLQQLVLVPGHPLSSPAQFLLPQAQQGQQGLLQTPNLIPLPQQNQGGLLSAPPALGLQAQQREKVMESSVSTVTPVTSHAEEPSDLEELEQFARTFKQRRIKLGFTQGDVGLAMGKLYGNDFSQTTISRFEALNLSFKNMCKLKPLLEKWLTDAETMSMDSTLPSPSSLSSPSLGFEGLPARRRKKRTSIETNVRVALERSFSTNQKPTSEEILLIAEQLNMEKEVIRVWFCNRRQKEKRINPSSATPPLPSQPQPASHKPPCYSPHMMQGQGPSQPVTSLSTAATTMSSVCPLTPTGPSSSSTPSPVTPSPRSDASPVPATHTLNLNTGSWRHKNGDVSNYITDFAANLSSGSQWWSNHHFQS
sequence,measurement,setting,value
CAATATGAATACAAAATATACCT / CATAGGTATATTTTGTATTCATA [scrambled consensus octamer (G-1249/G-1250)],binding result,Oct1 (endogenous) [1],no binding
same,binding result,Oct2 (endogenous) [2],no binding
CAATATGAATATGCAAATTACCT / CATAGGTAATTTGCATATTCATA [consensus octamer (G-656/G-567)],binding result,Oct1 (endogenous) [3],binds
same,binding result,Oct2 (endogenous) [4],binds
GCAAAACACTGCTATATGAAAGTCTAAT / CATTATTAGACTTTCATATAGCAGTGTT [scrambled Eμ3' first octamer (G-2132/G-2133)],binding result,[5],no binding
